This note sets out measurements from the supplement of paper PMC7824004.

This is one part of the list. The data scatter; read single values as rough.

The subject of the experiment is Candida albicans SN425. The experiment is described as follows: biofilm OD600 B-score; higher = more biofilm (less inhibition). The note with it: 10 µM; assay detail: High-throughput adherence inhibition optical density biofilm assay with C. albicans SN425 in RPMI-1640/MOPS pH 7.0, 384-well plates. …. The procedure: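 High-throughput adherence inhibition optical density biofilm assay with C. albicans SN425 in RPMI-1640/MOPS pH 7.0, 384-well plates. Compound (10 µM) was present only during the 90 min adherence step, then washed out, and the biofilm grew 24 h without compound. Biofilm was read as OD600 after removing the media. Scores are the difference from the mean in standard deviations and the plate B-score.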
Take `OC(COc1ccccc1)Cn1ccnc1` (stereo not given): the “biofilm OD600 B-score” value is 0.985.

For the compound `O=C(c1cccs1)N1CCN(c2ncccn2)CC1`, the “biofilm OD600 B-score” value was -1.18.

Turning to `Nc1ncc2c(n1)CC(c1cccs1)CC2=O` (stereo not given), the “biofilm OD600 B-score” value was determined as 0.441.

`C=CCn1c(SCCC)nc(O)cc1=O`: the “biofilm OD600 B-score” value was -0.308.

As for `CCC(Sc1nccn1C)C(=O)Nc1cc(C)on1` (stereo not given), the “biofilm OD600 B-score” value amounted to 0.835.

As for `Cc1nc(N)nc2[nH]c(=O)n(-c3ccccc3)c(=O)c12`, the “biofilm OD600 B-score” value was 0.988.

For the compound `CC(C)NC(=O)c1ccccc1NC(=O)Nc1ccccc1`, the “biofilm OD600 B-score” value is 0.805.

On to `COc1ccc(OC)c(NC(=O)c2c(F)c(F)c(OC)c(F)c2F)c1`, for which the “biofilm OD600 B-score” value came out at 0.0431.

As for `CC1(C)Cc2ccccc2C(C)(C(=O)NN)N1` (stereo not given), the “biofilm OD600 B-score” value turned out to be 1.38.

For the compound `CCC(NC(=O)Cc1ccccc1)C(=O)O` (stereo not given), the “biofilm OD600 B-score” value was -0.735.

On to `Fc1ccccc1COc1ccc(-c2nn[nH]n2)cc1`, for which the “biofilm OD600 B-score” value was 0.977.

Turning to `O=C(Nc1ccc2c(c1)OCCO2)c1cnccn1`, the “biofilm OD600 B-score” value was 1.04.

Turning to `CC(=O)Nc1cccc(NC(=O)Nc2cccc(Cl)c2)c1`, the “biofilm OD600 B-score” value is 1.98.

Consider `CCN(CC)C(=O)CNS(=O)(=O)c1ccc(C)cc1`, for which the “biofilm OD600 B-score” value is -2.64.

Take `CC(C)NC(=O)c1ccccc1NC(=O)c1ccccc1`: the “biofilm OD600 B-score” value was -1.76.

Take `C/C=C(\C)CN1CCN(c2ccccc2F)CC1`: the “biofilm OD600 B-score” value was -2.55.

In the case of `CN(CC(=O)NCC1CCCO1)S(=O)(=O)c1ccc(Cl)cc1` (stereo not given), the “biofilm OD600 B-score” value stood at 0.76.

On to `CC(C)c1ccc(CN2CCC(O)CC2)cc1`, for which the “biofilm OD600 B-score” value was determined as 0.586.

Take `Cc1ccc(F)c(NC(=O)C2CCCCC2C(=O)O)c1` (stereo not given): the “biofilm OD600 B-score” value was determined as 0.0176.

Regarding `OCCN(Cc1ccccc1)CC1CC=CCC1` (stereo not given), the “biofilm OD600 B-score” value was -2.91.

Turning to `N#CC(c1ccc(O)cc1)N1CCOCC1` (stereo not given), the “biofilm OD600 B-score” value was 1.55.

With `CN(CC(=O)Nc1cccc(Cl)c1)S(=O)(=O)c1ccccc1`, the “biofilm OD600 B-score” value is 1.54.

On to `NC(=O)c1ccccc1NC(=O)c1ccc2c(c1)OCO2`, for which the “biofilm OD600 B-score” value worked out at 0.536.

For `Cc1cccc(C(=O)Nc2ccc(F)cc2)n1`, the “biofilm OD600 B-score” value worked out at 1.62.

Consider `Nc1ccccc1C(=O)NCCOc1ccccc1`, for which the “biofilm OD600 B-score” value was -1.58.

For the compound `Cc1cc(SCC(C)C)n2ncnc2n1`, the “biofilm OD600 B-score” value is -0.986.

In the case of `CC(C)(C)c1ccc(S(=O)(=O)CCc2ccccn2)cc1`, the “biofilm OD600 B-score” value worked out at 1.

`O=C(Nc1ccc(Cl)cc1Cl)C1CCCO1` (stereo not given): the “biofilm OD600 B-score” value was determined as 0.977.

As to `Nc1ccc(S(=O)(=O)Nc2nccs2)cc1`, the “biofilm OD600 B-score” value is -0.747.

With `Oc1cnn(-c2ccccc2)c1`, the “biofilm OD600 B-score” value was 0.671.

Take `COc1ccc(-c2[nH]ncc2-c2ccc(F)cc2)c(O)c1`: the “biofilm OD600 B-score” value is 0.253.

In the case of `N#CCCN(CC(=O)O)S(=O)(=O)c1ccccc1`, the “biofilm OD600 B-score” value was -1.23.

Take `Cc1ccc(C(=O)NCc2cccnc2)s1`: the “biofilm OD600 B-score” value came to 2.04.

Regarding `CCC(CO)NC(=O)C1COc2ccccc2O1` (stereo not given), the “biofilm OD600 B-score” value is -1.05.

`COCCNC(=O)c1cc(Cl)ccc1OC`: the “biofilm OD600 B-score” value was -0.412.

For `CSc1ccc(CN(C)C2CCN(C)CC2)cc1`, the “biofilm OD600 B-score” value was -0.203.

For `O=C(NCC1CCCO1)NC1CCCCC1` (stereo not given), the “biofilm OD600 B-score” value is -0.111.

On to `CCN(CC)C(=O)c1ccc(OC)c(OC)c1`, for which the “biofilm OD600 B-score” value was determined as 1.27.

As for `CC(C)(C)NS(=O)(=O)c1ccccc1Cl`, the “biofilm OD600 B-score” value is 1.78.

On to `COc1ccc(S(=O)(=O)Nc2cccc(SC)c2)cc1OC`, for which the “biofilm OD600 B-score” value was -0.741.
